Values from PubChem BioAssay AID1671195 (Yale University, 2021)

Assay: 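Regulators of LDL receptor activity judged by labelled LDL uptake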 (primary screen)
System: human Huh7 hepatoma cells
Reagent: siRNA pool against human genes, 18 nM
Time to read-out: about 2 to 2.5 days of knockdown, then 8 h LDL uptake
Treatment: DiI-labelled LDL at 30 µg/ml for 8 h, in lipoprotein-deficient serum medium
Detection: 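Per-cell DiI-LDL intensity by automated imaging; well means scaled to the plate median and given as a robust z-score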
Reading the numbers: robust z-score: higher = more LDL uptake after knockdown
Active means: 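Active when two or more replicates show a robust z-score above 2 or below -2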
Shown is an unselected part of about 22,000 deposited reagents. About 1,510 of them (6.9%) were called active. 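Active includes knockdowns raising or lowering LDL uptake; positive z-scores mean more uptake, negative mean less.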 A number with no mark means an inactive call.

| Gene | robust z-score, replicate 1 | robust z-score, replicate 2 | robust z-score, replicate 3 |
| --- | --- | --- | --- |
| TMEM95 | 1.86 | 1.85 | 1.96 |
| ACADL | 0.352 | 0.136 | 0.662 |
| LINC00602 | -1.76 | -1.04 | -1.04 |
| NIPA1 | -0.168 | -0.329 | -1.12 |
| XCL1 | 2.13 | -0.266 | 0.519 |
| RPL5P34 | 2.42 (active) | 2.07 | 3.19 |
| MSI1 | -0.296 | 1.16 | -0.529 |
| WDR1 | 0.695 | -0.642 | 0.933 |
| DELEC1 | -0.652 | -0.00211 | -1.85 |
| MREG | -1.63 | 0.478 | -0.263 |
| TRMO | 0.344 | -1.32 | -1 |
| EEFSEC | -2.13 | -1.67 | -1.82 |
| GLIS3 | -0.741 | -0.474 | -0.768 |
| INTS1 | -1.69 | -2.77 | -1.75 |
| TPM4 | -0.0902 | -1.1 | -0.24 |
| LOC339782 (retired record) | 0.289 | 0.443 | 0.672 |
| RAPH1 | 0.155 | 0.339 | 0.277 |
| PAQR4 | 1.45 | 1.48 | 1.68 |
| COL1A1 | -0.538 | -1.11 | -0.938 |
| POLG2 | -0.711 | -0.584 | -0.514 |
| TBC1D3P2 | 0.0663 | -0.0693 | -0.42 |
| LOC391540 (retired record) | 1.07 | 0.943 | 1.25 |
| CEACAM8 | -0.768 | -0.77 | -0.275 |
| NEXN | 0.868 | 0.884 | 0.408 |
| RLIG1 | -0.805 | -0.444 | -0.331 |
| IFT43 | 0.424 | 0.823 | 1.13 |
| MNDA | -1.21 | -1.21 | -1.18 |
| DENND4C | 0.597 | 0.678 | 0.905 |

3 of these entries, reformatted:
COL1A1
- robust z-score, replicate 1: -0.538
- robust z-score, replicate 2: -1.11
- robust z-score, replicate 3: -0.938

POLG2
- robust z-score, replicate 1: -0.711
- robust z-score, replicate 2: -0.584
- robust z-score, replicate 3: -0.514

TBC1D3P2
- robust z-score, replicate 1: 0.0663
- robust z-score, replicate 2: -0.0693
- robust z-score, replicate 3: -0.42

The listing continues.
| Gene | robust z-score, replicate 1 | robust z-score, replicate 2 | robust z-score, replicate 3 |
| --- | --- | --- | --- |
| ARHGAP22 | -1.09 | -1.23 | -1.14 |
| SLC26A10P | -0.159 | -0.329 | 0.345 |
| HSF5 | -1.21 | -1.53 | -1.09 |
| SOCS1 | 1.15 | -0.22 | 0.315 |
| SLIT2 | 0.817 | -0.577 | -0.751 |
| RTL8B | 0.425 | 0.969 | 0.765 |
| RELL2 | -0.0436 | -0.257 | 0.195 |
| LOC441119 (retired record) | -0.303 | 0.139 | -0.255 |
| KLK14 | 0.255 | 0.45 | 0.766 |
| ALDH3B2 | -0.714 | -0.529 | -0.573 |
| FXYD2 | -1.56 | -1.27 | -1.53 |
| OR5H15 | -0.363 | -0.988 | -1.14 |
| MKRN2 | 0.0661 | 0.357 | 0.0732 |
| LY6H | 3.14 (active) | 3.44 | 2.54 |
| TERF1 | 0.706 | 1.33 | 0.925 |
| SUSD3 | -0.979 | -1.34 | -1.54 |
| CARMIL1 | 0.134 | 1.92 | -0.143 |
| ZNF560 | -0.527 | 0.433 | -0.381 |
| FANK1 | 1.8 | -0.0661 | 0.18 |
| NBEA | 0.0768 | -2.34 | -0.343 |
| LRIG2 | 0.0453 | 0.454 | -1.04 |
| RAB31 | 0.235 | 0.113 | 0.537 |
| SLC25A18 | 0.272 | 0.271 | 0.167 |
| BDP1 | 0.247 | -2.27 | -0.312 |
| PRDM2 | -0.235 | -0.617 | -0.216 |
| CCR3 | -1.12 | -1.41 | -1.74 |
| MME | -0.325 | 0.78 | 0.553 |
| TPTEP2 | 0.589 | 0.0801 | 0.572 |
| RPS16P8 | 0.445 | -0.684 | -1.18 |
| PSMG4 | 0.899 | 0.712 | 1.46 |
| SMARCA5 | 0.0983 | -0.689 | -0.0274 |
| PARK7 | -0.455 | -0.0393 | -0.223 |
| EXD1 | -0.699 | 2.29 | -0.183 |
| DGLUCY | 0.0533 | 0.412 | -0.278 |
| ASB18 | -0.964 | -1.21 | -1.07 |
| COL10A1 | 0.673 | 0.588 | 0.281 |
| SNN | 1.09 | -0.576 | 0.353 |
| SLC9A1 | -2.18 (active) | -2.22 | -2.67 |
| PDCL2 | 1.65 | 0.876 | 0.795 |
| CFHR4 | -0.735 | -0.688 | -0.308 |
